For some of these results: At least one compound was matched to its structure with a doubt left. Some results were stated once for a whole list of compounds, not compound by compound.
How the values were obtained:
wt HIV-1 RT = target: T1, wt HIV-1 RT (Human immunodeficiency virus type 1 group M subtype B, UniProt P04585); assay: Chain elongation/termination assay; assay type: biochemical; conditions: HIV-PBS template, dPR primer, raising inhibitor concentration
T1 construct: Wild type (wt) version of recombinant HIV-1 RT were expressed with a histidine tag; histidine tag; made in house; host or cells: E. coli
Experimental: RT inhibition assay. The inhibition of HIV-1 RT RNA dependent DNA polymerase activity of DXG-TP was assessed under steady-state enzymatic kinetics by employing homopolymeric RNA templates/DNA primers (T/P) and a heteropolymeric RNA template/DNA primer. The heteropolymeric RNA template contains the HIV-1 primer binding sequence, US and R regions (designated as HIV-PBS). […] The oligodeoxynucleotide primer (dPR) is an 18-mer (5′-[…]-3′) which is complementary to the HIV-1 primer binding sequence. […] Inhibition of dNTP incorporation/chain termination. […] HIV-PBS RNA template and dPR DNA primer were used in this system. The RT reactions were performed in […] containing 50 mM Tris (pH 7.8), 75 mM KCl, 10 mM MgCl2, 100 μM of dNTPs. […] The reactions were allowed to proceed at 37° C. for 60 min in the presence or absence of inhibitors. The transcribed DNA products were separated on a 5% denaturing polyacrylamide gel and visualized by exposure to X-ray film.
The chain elongation/termination assay provides a method to directly visualize the products of incorporation of dideoxynucleotide monophosphates into nascent DNA by monitoring the reaction products using polyacrylamide gel electrophoresis. The experiment was performed using wt HIV-1 RT, and HIV-PBS heteropolymeric template, and [^32p]ATP labeled dPR primer in the presence of various concentrations of RT inhibitor. […]

recombinant HXB2-D 184V = assay type: cell-based, HIV-1; conditions: 184V variant
Experimental: (§1) HIV-1IIIB laboratory strain and HXB2-D recombinant of HIV-1 were kindly supplied by R. C. Gallo (Institute of Human Virology, Baltimore, Md.). […] The recombinant viruses were generated by transfection of proviral DNA into MT-4 cells with Lipofectamine using the protocol recommended by the manufacturer .(Gibco BRL, Montreal, Canada). […] Stock viruses were prepared from clarified culture supernatants by centrifugation and stored at −70° C. The viruses were titrated by limited dilution with a 4-fold serial dilution.

recombinant HXB2-D 65R = assay type: cell-based, HIV-1; conditions: variant printed as 65K in the text
Experimental: as §1

recombinant HXB2-D 74V = assay type: cell-based, HIV-1; conditions: 74V variant
Experimental: as §1

Structure (SMILES)	chain termination / full-length products, in words (wt HIV-1 RT)	decreased sensitivity referred to the wt HXB2-D (recombinant HXB2-D 184V)	decreased sensitivity referred to the wt HXB2-D (recombinant HXB2-D 65R)	decreased sensitivity referred to the wt HXB2-D (recombinant HXB2-D 74V)
Nc1nc2c(ncn2[C@H]2CC[C@@H](CO[P@@](=O)(O)O[P@](=O)(O)OP(=O)(O)O)O2)c(=O)[nH]1 [ddGTP, dideoxyguanosine triphosphate, reference compound]	caused increasing chain termination but decreasing full-length products	–	–	–
Nc1nc(N)c2ncn([C@H]3CO[C@@H](CO)O3)c2n1 [DAPD, (−)- -D-2,6-diaminopurine-1,3-dioxolane]	–	2 to 5 fold	2 to 5 fold	2 to 5 fold
Nc1nc2c(ncn2[C@H]2CO[C@@H](CO)O2)c(=O)[nH]1 [DXG, (−)-β-D-1,3-dioxolane guanine]	–	2 to 5 fold	2 to 5 fold	2 to 5 fold
